This test in a line: qHTS Assay for Lipid Storage Modulators in Drosophila S3 Cells.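 On cell number change: cells counted by Cell Tracker Red CMTPX staining in the red channel.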 Conditions: BODIPY lipid droplet fluorescence, 18-24 h; for cell number change: measured here: cell count max response, cells fed with added oleic acid. The procedure, abridged:
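Drosophila S3 cells loaded with oleic acid (400 uM, as added) and compounds at several concentrations; lipid droplets imaged by 488-nm laser-scanning cytometry, 500–530 nm intensity and object ratio to cell channel. Percent activity normalized to 20 uM Triacsin C.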

Setting [1] is: measured here: lipid fluorescence (Fed channel) AC50, cells fed with added oleic acid.
The mark [2] stands for this setting: measured here: cell number channel AC50, cells fed with added oleic acid.

Among the data in PubChem BioAssay AID2685 (National Center for Advancing Translational Sciences (NCATS), 2010) are cell number change and AC50 values, retold here.

The list shows a part of the results. The main result of the screen is listed elsewhere. These columns were measured beside it and carry no call. Most of these compounds were active or inconclusive in the main read-out, so they are no random draw. Potencies come from curve fits of mixed quality, noted in brackets.

On to `CNc1nc(Cl)c(SC)c(NCc2cccc(OC)c2)n1`, for which the cell number change stood at 2.48%.
As for `COc1ccc(CCN(C)CCC(=O)Nc2ccc(C)cc2)cc1OC`, the cell number change is -0.414%.
For orientation: AC50 means the midpoint of the concentration-response curve, whichever way the signal moves. Lower therefore signals greater potency. Take `COc1ccc(-c2[nH]nc3oc(=O)cc(C)c23)cc1`: the cell number change was -13.1%. Besides, the concentration at half-maximal activity (AC50) under setting [1] is 20.6 µM [falling, single point].
With `COc1ccc(C2C(C(=O)Nc3cccc(C)n3)CCC(=O)N2c2ccc(OC)cc2)cc1` (centres undefined), the cell number change came out at 32.4%. Also, the AC50 under setting [2] was 8.2 µM [rising, partial curve, poor fit]. Besides, the half-maximal activity concentration (AC50) under setting [1] was 1.16 µM [rising, full curve].
On to `O=C(CNC(=O)c1ccc2ccccc2c1)Nc1ncccc1O`, for which the cell number change came to 9.43%. Further, under setting [2], the AC50 was 4.61 µM [rising, single point]. In addition, the AC50 under setting [1] is 5.8 µM [rising, partial curve, poor fit].
Turning to `Cc1cc(C(=O)NCC(=O)Nc2c(C)cccc2C)c(C)o1`, the cell number change is -17.3%.
`CC1CC(=O)C(C2c3ccccc3CCN2C(=O)CCl)C(=O)C1` (centres undefined): the cell number change is -9.64%. The AC50 under setting [1] was 6.51 µM [falling, partial curve, poor fit].
Turning to `Cc1cc(=O)[nH]c(SCC(=O)NC2CCCCC2)n1`, the cell number change was -2.56%. Further, the AC50 under setting [1] is 29.1 µM [rising, single point].
Regarding `O=C(COC(=O)CNC(=O)c1ccc(Cl)cc1Cl)NCc1ccco1`, the cell number change stood at 13%. The AC50 under setting [1] is 32.6 µM [falling, single point].
`CC(=O)Nc1ccc(/C=C(\C#N)C(=O)NC2CCCCC2)cc1`: the AC50 under setting [1] was 29.1 µM [falling, single point].
Take `COc1ccccc1N1CCN(Cc2nc(N)nc(Nc3ccc(C)cc3)n2)CC1`: the cell number change turned out to be 10.7%. For the same compound, under setting [1], the AC50 was 2.06 µM [rising, partial curve].
Consider `COCCN(Cc1ccccc1)C(=O)c1cccc(S(=O)(=O)N2CCN(c3ccccc3)CC2)c1`, for which the cell number change was 1.25%. The AC50 under setting [1] was 16.4 µM [falling, single point].
Take `CCN(CC)S(=O)(=O)c1ccc2[nH]cc(C(=O)NCCCN3CCCCC3)c(=O)c2c1`: the cell number change was -30.1%. Under setting [2], the concentration at half-maximal activity (AC50) is 0.92 µM [falling, full curve, poor fit]. The half-maximal activity concentration (AC50) under setting [1] is 0.517 µM [falling, full curve].
Turning to `CN(CC(=O)Nc1ccc(F)cc1)C(=O)C1CCCC1`, the cell number change is -14.2%. Further, the AC50 under setting [2] is 0.00517 µM [falling, full curve, poor fit]. Besides, the AC50 under setting [1] is 0.00517 µM [falling, full curve, poor fit].
As for `N#CCCN1CCN(S(=O)(=O)c2ccc3c(c2)CCC3)CC1`, the cell number change worked out at 5.58%. Moreover, the half-maximal activity concentration (AC50) under setting [2] is 6.51 µM [falling, single point]. In addition, the half-maximal activity concentration (AC50) under setting [1] was 6.51 µM [falling, single point].
Regarding `Cc1cc(NC(=O)COc2ccc(F)c(Cl)c2)no1`, the cell number change turned out to be 24.9%. Also, under setting [1], the AC50 is 10.3 µM [rising, partial curve, poor fit].
For the compound `CN(C)CCCN(C(=O)c1ccc(S(=O)(=O)N2CCCCCC2)cc1)c1nc2c(F)cc(F)cc2s1`, the cell number change was found to be 67.7%. Further, under setting [2], the AC50 is 29.1 µM [rising, single point].
Turning to `O=c1cc(O)c2c(=O)n(-c3ccccc3)c3c(c2o1)CCCCCC3`, the cell number change was -14.4%. Besides, the AC50 under setting [2] was 3.26 µM [falling, single point]. For the same compound, under setting [1], the half-maximal activity concentration (AC50) is 2.91 µM [falling, full curve].
Regarding `CCN1CCN(Cc2ccc(NC(=O)c3cc(NC(=O)C4=NN(c5ccccc5)C(=O)C4)cc(OC)c3)cc2C(F)(F)F)CC1`, the cell number change amounted to 9.1%. The AC50 under setting [2] was 2.91 µM [rising, partial curve, poor fit]. The AC50 under setting [1] was 1.84 µM [rising, partial curve, poor fit].
As for `COc1ccc(-c2cc(=Nc3ccc(C)cc3)c3ccccc3o2)cc1`, the cell number change was -18.3%. Under setting [1], the AC50 is 25.9 µM [falling, single point].
For `O=c1cnc2ccccc2n1Cc1ccc(Br)cc1`, the cell number change came out at 6.85%. Moreover, the AC50 under setting [1] is 25.9 µM [rising, partial curve].
For the compound `Cc1ccc(C)c(NC(=O)CSc2nnc(-c3ccccc3C)o2)c1`, the cell number change came to 47.8%. Further, under setting [2], the AC50 was 0.731 µM [rising, partial curve, poor fit]. Also, under setting [1], the AC50 was 0.58 µM [rising, full curve].
For the compound `Cc1nc(-c2nc(CC(=O)NNC(=O)c3ccc(Cl)cc3)cs2)cs1`, the cell number change stood at 14.2%. For the same compound, under setting [1], the AC50 was 0.517 µM [rising, partial curve, poor fit].
Take `CCOc1cc(/C=N/Nc2ccc(C(=O)O)cc2)ccc1OC(=O)c1ccccc1C`: the cell number change stood at 14.8%. The concentration at half-maximal activity (AC50) under setting [2] was 0.0461 µM [rising, full curve, poor fit].
As to `Cc1cccc(NC(=O)CCN2CCN(C/C=C/c3ccccc3)CC2)c1`, the half-maximal activity concentration (AC50) under setting [1] was 6.51 µM [falling, single point].
As for `CCOC(=O)/C(C#N)=C1/CCCCCN1C`, the cell number change was -1.08%. Besides, the half-maximal activity concentration (AC50) under setting [2] was 1.03 µM [rising, full curve, poor fit].
With `COCCn1c(=O)[nH]c2cc(C(=O)N3CCN(c4cccc(Cl)c4)CC3)ccc2c1=O`, the cell number change turned out to be 5.71%. For the same compound, the concentration at half-maximal activity (AC50) under setting [1] was 6.51 µM [rising, single point].
In the case of `Cc1cc(NC(=O)/C=C/c2ccc(Cl)cc2)no1`, the cell number change was -38.6%. Under setting [2], the AC50 was 1.64 µM [falling, partial curve]. Also, the AC50 under setting [1] was 29.1 µM [rising, single point].
In the case of `CCOc1cc(/C=N/NC(=O)c2cc(-c3cccnc3)nc3ccccc23)ccc1O`, the cell number change is 4.35%.
Take `COC(=O)/C(=N/Nc1cccc(C)c1)N1CCCc2ccccc21`: the cell number change amounted to 20.1%. For the same compound, the AC50 under setting [1] is 2.06 µM [rising, partial curve, poor fit].
`Nc1nnc(CCc2ccccc2)s1`: the cell number change was -13.6%. The concentration at half-maximal activity (AC50) under setting [1] was 1.84 µM [rising, partial curve].
In the case of `C=CCn1c(SCC(=O)c2[nH]c(C)c(C(C)=O)c2C)nnc1-c1ccncc1`, the concentration at half-maximal activity (AC50) under setting [2] was 0.164 µM [rising, full curve, poor fit] and the AC50 under setting [1] is 6.51 µM [rising, partial curve, poor fit].
On to `O=S(=O)(Nc1cccc(S(=O)(=O)N2CCCC2)c1)c1ccc(F)cc1`, for which the cell number change was -6.62%. In addition, under setting [1], the concentration at half-maximal activity (AC50) was 6.51 µM [rising, single point].
For the compound `Cc1onc(-c2ccccc2)c1C(=O)NCCCc1ccccc1`, the cell number change was -15.5%. For the same compound, the AC50 under setting [1] is 1.64 µM [rising, partial curve, poor fit].
Consider `N#Cc1ccc(C(=O)OCC(=O)Nc2ccc(S(N)(=O)=O)cc2)cc1`, for which the cell number change is -13.6%. In addition, under setting [1], the AC50 was 29.1 µM [falling, single point].
Turning to `COc1ccc(C)cc1NC(=O)CNC(=O)c1sc2ccccc2c1Cl`, the cell number change was -74.1%. Moreover, the half-maximal activity concentration (AC50) under setting [2] is 6.51 µM [falling, full curve].
`CSCCC(NC(=O)c1ccccc1Cl)C(=O)NNC(=O)c1csc(N2CCOCC2)n1` (centres undefined): the cell number change was determined as 6.26%. The AC50 under setting [1] is 5.8 µM [falling, partial curve, poor fit].
For `O=C(COc1ccc(Br)cc1)NCCCNC(=O)c1cccnc1`, the cell number change was 29.2%. Under setting [1], the AC50 was 11.2 µM [rising, partial curve].
On to `O=C(Nc1ccccc1Oc1ccccc1)C1CC1`, for which the cell number change is -0.446%. Besides, under setting [1], the AC50 was 0.82 µM [falling, partial curve].
With `Cc1noc(C)c1COc1cccc(C(=O)N2CCc3ccccc32)c1`, the cell number change was 160%.
Turning to `O=C(/C(=C(\[O-])c1ccccc1)[n+]1ccc2ccccc2c1)c1ccccc1`, the cell number change is -41.9%. The concentration at half-maximal activity (AC50) under setting [2] was 23.1 µM [falling, single point]. For the same compound, the AC50 under setting [1] is 1.84 µM [rising, partial curve].
As for `COc1ccc(S(=O)(=O)NC2CC(=O)N(c3cccc(F)c3)C2)cc1OC` (centres undefined), the cell number change was -88.5%. Under setting [2], the AC50 is 29.1 µM [falling, single point].
On to `O=C(/C=C/c1cccc([N+](=O)[O-])c1)NCCSCc1ccc(Cl)cc1`, for which the cell number change stood at 50%. The AC50 under setting [2] was 16.4 µM [rising, partial curve]. In addition, under setting [1], the AC50 is 2.91 µM [rising, partial curve].
For the compound `CN(Cc1cc(=O)n2ccsc2n1)C1CCCCC1`, the cell number change is 6.25%. Under setting [1], the concentration at half-maximal activity (AC50) is 0.461 µM [falling, partial curve].
With `CN(CC(=O)N1CCc2ccccc21)S(=O)(=O)c1ccc(Br)s1`, the cell number change stood at 37.6%. Moreover, the AC50 under setting [2] was 13 µM [rising, partial curve, poor fit]. Further, the half-maximal activity concentration (AC50) under setting [1] was 29.1 µM [rising, single point].
With `Nc1ccc(S(=O)(=O)NCC(=O)OCCOc2ccccc2)cc1[N+](=O)[O-]`, the cell number change is -3%.
Regarding `O=C(c1ccc(Br)cc1)N1CCCc2ccccc21`, the cell number change was -6.35%.
With `CCOC(=O)Cc1csc(SCC(=O)Nc2nccs2)n1`, the cell number change is 7.98%. For the same compound, under setting [1], the AC50 is 16.4 µM [falling, partial curve, poor fit].
As to `CC(NC(=S)Nc1ccccc1)C1COc2ccccc2O1` (centres undefined), the cell number change was found to be 2.09%. Besides, the AC50 under setting [1] was 29.1 µM [rising, single point].
Turning to `COC(=O)c1ccc(C(=O)N2CCCC(N3CCN(c4ccccc4)CC3)C2)nc1` (centres undefined), the cell number change was -10.1%. The half-maximal activity concentration (AC50) under setting [1] was 23.1 µM [rising, single point].
`C=CCn1c(SCC(=O)Nc2cc(OC)c(NC(=O)c3ccco3)cc2OC)nnc1-c1ccncc1`: the cell number change is 6.26%. Also, under setting [1], the concentration at half-maximal activity (AC50) is 5.8 µM [rising, single point].
On to `N#Cc1c(/N=C/N2CCOCC2)sc2c1CCCCC2`, for which the cell number change is -10.7%. Moreover, the AC50 under setting [1] was 6.51 µM [rising, single point].
Turning to `O=C(Oc1c(-c2ccccc2)c(=O)n2c3c(cccc13)CC2)c1ccco1`, the cell number change came to 0.0346%. Moreover, the half-maximal activity concentration (AC50) under setting [1] is 0.461 µM [falling, full curve, poor fit].
With `O=C(CCCn1nnc(-c2cccnc2)n1)c1ccc(F)cc1`, the cell number change turned out to be 11.2%. The concentration at half-maximal activity (AC50) under setting [2] was 0.326 µM [rising, full curve]. Besides, under setting [1], the half-maximal activity concentration (AC50) was 1.3 µM [rising, partial curve].
As to `CCC(C)NC(=O)CNC(=S)N(CCCN1CCOCC1)Cc1cccs1` (centres undefined), the cell number change came out at 5.19%. Further, the AC50 under setting [1] is 3.26 µM [rising, single point].
Regarding `CSc1nnnn1-c1ccc(Cl)cc1`, the cell number change turned out to be 154%. The concentration at half-maximal activity (AC50) under setting [2] is 16.4 µM [rising, single point].
Consider `Cc1cccc(NC(=O)CN2CCN(C(=O)C3CCC3)CC2)c1C`, for which the cell number change came to 16.5%.
As for `CN(C)CC[n+]1ccc(C(=O)c2ccccc2)cc1`, the cell number change stood at 7.62%. Under setting [1], the AC50 was 0.651 µM [rising, single point].
